Source: PubChem BioAssay AID540276 (National Center for Advancing Translational Sciences (NCATS), 2011)
In all, about 300,000 compounds went through this assay and about 5,400 (1.8%) were called active. The shares of active, inactive and inconclusive entries below differ from those in the screen. The call rests on the fitted dose curve; tested in HEK293 cells. Potencies of inconclusive entries are doubtful fits and often do not repeat.

Assay: qHTS for inhibitors of binding or entry into cells for Marburg Virus
Details: Marburg virus pseudotyped entry inhibition, cell reporter; series mostly up to 37.8 µM
Potency means the concentration at half of the fitted maximal effect.

Structure (SMILES) | Potency
CON/C=C(\C=Nc1ccc(Cl)cc1)c1ncc(C(F)(F)F)cc1Cl | inconclusive: 3.66 µM [inhibitor, single point]
O=C(CNCCC1=CCCCC1)Nc1ccc(N2CCCCCC2)cc1 | inconclusive: 5.17 µM [inhibitor, single point]
CC(C)(C)C1CCc2c(sc(NC(=O)C3c4ccccc4Oc4ccccc43)c2C(N)=O)C1 (configuration not stated) | inconclusive: 35.5 µM [inhibitor, single point]
O=C(Cc1cccs1)Nc1nc2c(ccc3ccccc32)s1 | inconclusive: 20 µM [inhibitor, single point]
Cc1cc(C)c2sc(N(CCN(C)C)C(=O)c3c(F)cccc3F)nc2c1 | inconclusive: 3.16 µM [inhibitor, partial curve, poor fit]
COC(=O)c1cccc(-c2ccc(C(c3c(C)[nH][nH]c3=O)c3c(C)[nH][nH]c3=O)o2)c1 | inactive
O=C(CSc1nc(N2CCOCC2)nc(N2CCOCC2)n1)Nc1cccc(C(F)(F)F)c1 | inactive
OCC1CCN(Cc2nc(Cc3ccccc3Cl)no2)CC1 | inactive
CC1CCN(S(=O)(=O)c2ccc(C(=O)Nc3nnc(C4CC4)o3)cc2)CC1 | inconclusive: 31.6 µM [inhibitor, single point]
COc1ccc(Nc2c3c(nc4ccccc24)CCC3)cc1Cl | inconclusive: 11.2 µM [inhibitor, partial curve, poor fit]
Cc1ccc(CN(C(=O)COc2ccccc2Cl)c2ccccn2)o1 | inactive
COc1ccccc1CN(Cc1nc2ccccc2c(=O)[nH]1)S(=O)(=O)c1ccc2ccccc2c1 | inconclusive: 4.11 µM [inhibitor, full curve]
COc1ccc2c(c1OC)C(=O)N(c1cccc(C)c1)C2 | inconclusive: 3.98 µM [inhibitor, partial curve, poor fit]
Cc1cc(C)cc(CC2CC(=O)N(c3nc(C)cc(C)n3)C2=O)c1 (configuration not stated) | inactive
COc1ccc(C(=O)NCCC(=O)NCc2cc(=O)n(C)c(=O)n2C)cc1 | inconclusive: 35.5 µM [inhibitor, single point]
Cc1ccc(C(=O)NN=C2CCCC2)cc1C | inconclusive: 35.5 µM [inhibitor, single point]
COc1ccc(S(=O)(=O)N2CCN(Cc3cccc(Cl)c3)CC2)cc1 | inactive
Cc1cccc(Oc2ncnc(N)c2[N+](=O)[O-])c1 | inconclusive: 7.94 µM [inhibitor, partial curve, poor fit]
Cc1ccc(CCNC(=O)c2ccc(CS(=O)(=O)Cc3ccccc3F)o2)cc1 | inconclusive: 14.6 µM [inhibitor, single point]
COc1ccc(CCN2C(=O)CC(NNc3ccc([N+](=O)[O-])cc3)C2=O)cc1OC (configuration not stated) | inactive
Cc1ccc(N(C)S(=O)(=O)c2cccc(C(=O)Nc3nnc(C4CC4)s3)c2)cc1 | inconclusive: 4.47 µM [inhibitor, partial curve, poor fit]
O=C(Nc1nnc(COc2ccccc2)s1)C1CCN(S(=O)(=O)c2ccc(Cl)cc2)CC1 | inconclusive: 23.1 µM [inhibitor, partial curve, poor fit]
O=C(NCc1ccc2c(c1)OCO2)C1CCCN1C(=O)Nc1ccc(F)cc1 (configuration not stated) | inconclusive: 20.6 µM [activator, single point]

Structure (SMILES) | Potency
Brc1ccc(CNc2cc3c(cc2Br)OCCO3)cc1 | inactive
Cc1ccc(NC(=O)Nc2cnc3ccccc3c2)cc1 | inconclusive: 0.562 µM [activator, full curve, poor fit]
COc1ccc(S(=O)(=O)N2CCCCCC2)cc1C(=O)N1CCN(c2ccccc2O)CC1 | inconclusive: 0.708 µM [inhibitor, partial curve, poor fit]
CC(C)[C@H](NC(=O)c1cccc(S(=O)(=O)N2CCOCC2)c1)C(=O)Nc1nc2ccccc2s1 | inconclusive: 20 µM [inhibitor, partial curve, poor fit]
CCOC(=O)C1CCCN(C(=O)Cn2nc(CC)n3c(cc4occc43)c2=O)C1 (configuration not stated) | inactive
CCC(=O)c1ccc(OCC(=O)OCC(=O)c2cc(C)n(C3CC3)c2C)cc1 | inactive
COc1ccc(C2=C(CN(C)C)C(c3ccccc3)c3ccccc3O2)cc1 (configuration not stated) | inconclusive: 35.5 µM [inhibitor, single point]
O=C1/C(=C/c2ccccc2)CN(C(=O)CCN2CCOCC2)C/C1=C\c1ccccc1 | inconclusive: 35.5 µM [inhibitor, single point]
Cc1ccc(C)c(N2CCN(CCCNC(=O)Nc3ccc(Cl)cc3)CC2)c1 | inconclusive: 14.1 µM [inhibitor, partial curve, poor fit]
Cc1ccc(NC(=O)/C=C/c2cccs2)c([N+](=O)[O-])c1 | inconclusive: 29.1 µM [inhibitor, single point]
Cc1cc(C(=O)NCCN2CCOCC2)ccc1[N+](=O)[O-] | inconclusive: 0.562 µM [activator, full curve, poor fit]
COC(=O)c1ccc(CN2CCN(Cc3ccc(F)cc3)C(CCO)C2)cc1 (configuration not stated) | inconclusive: 35.5 µM [inhibitor, single point]
CCOC(=O)c1cnc(SCC(=O)N2CCN(C(=O)c3ccco3)CC2)nc1N | inconclusive: 14.6 µM [activator, single point]
COCC(C)n1c(SCC(=O)NCCC2=CCCCC2)nc2ccccc2c1=O (configuration not stated) | inactive
Cc1cc(/C=C(/C#N)C(=O)Nc2ccc(Cl)cc2)c(C)n1-c1cccnc1 | inconclusive: 1.26 µM [inhibitor, single point]
CNc1nc(-c2ccc(Cl)cc2)cs1 | inconclusive: 5.62 µM [activator, single point]
COc1ccccc1N1CCN(CC(O)COc2ccc(C)cc2C(C)(C)C)CC1 (configuration not stated) | inconclusive: 14.1 µM [inhibitor, partial curve, poor fit]
CCN(CC)CCNC(=O)Cn1nc(-c2ccccc2)c2ccccc2c1=O | inconclusive: 35.5 µM [inhibitor, single point]
CC1(C)NCCN2C(=O)CS[C@H]21 | inactive
O=C(Cn1[nH]c(=O)c2ccccc2c1=O)OCC(=O)c1ccccc1Cl | inconclusive: 0.355 µM [inhibitor, partial curve, poor fit]
Fc1ccc(N/N=C/C=C/c2ccccc2)c(F)c1 | inconclusive: 3.16 µM [activator, full curve]
CCOC(=O)c1c(NC(=O)Cn2cnc3scc(-c4ccc(C)cc4)c3c2=O)sc(C)c1C | inconclusive: 22.4 µM [inhibitor, single point]
COCC(=O)Nc1cc(C(=O)NCC(C)C)ccc1Cl | inactive

Sorted by heavy-atom count (smallest number first): 3 of the compounds above
Structure (SMILES) | Potency
Cc1ccc(NC(=O)Nc2cnc3ccccc3c2)cc1 | inconclusive: 0.562 µM [activator, full curve, poor fit]
COc1ccc(C(=O)NCCC(=O)NCc2cc(=O)n(C)c(=O)n2C)cc1 | inconclusive: 35.5 µM [inhibitor, single point]
COCC(C)n1c(SCC(=O)NCCC2=CCCCC2)nc2ccccc2c1=O (configuration not stated) | inactive

Carrying on.

Structure (SMILES) | Potency
O=C(O)c1ccn(Cn2cnc3ccccc32)n1 | inactive
Cn1c(SCC(=O)c2ccccc2)nnc1-c1ccccn1 | inconclusive: 35.5 µM [activator, single point]
CC1=C(Br)C2=C(CC1)NC(=O)/C2=N\N1C(=O)C2CCCCC2C1=O (configuration not stated) | inactive
CCOC(=O)C1CCN(C(=O)C2CCC(=O)N(CC3CCCCC3)C2)CC1 (configuration not stated) | inconclusive: 17.8 µM [inhibitor, single point]
CC(C)NS(=O)(=O)c1ccc(OCC(=O)Nc2ccc(F)cc2)cc1 | inactive
Cc1cc(C)n(C(=O)COc2ccc([N+](=O)[O-])cc2)n1 | inconclusive: 11.2 µM [activator, partial curve]
COc1cc(/C=N\NC(=O)CNC(=O)c2cccc([N+](=O)[O-])c2)ccc1O | inconclusive: 4.47 µM [inhibitor, partial curve, poor fit]
S=c1[nH]nc(-c2ccncc2)n1Cc1ccco1 | inactive
CCC1(C(=O)c2ccccc2)C(c2cccc([N+](=O)[O-])c2)C1(C(=O)OC)C(=O)OC (configuration not stated) | inconclusive: 35.5 µM [inhibitor, single point]
COC(=O)c1cnc(Oc2c(Cl)cc(N)cc2Cl)cc1C(F)(F)F | inconclusive: 6.31 µM [activator, single point]
O=c1cc(CSc2nnc(COc3cccc4ccccc34)o2)c2ccccc2[nH]1 | inconclusive: 0.562 µM [activator, full curve, poor fit]
CCc1cc2ccc(C)cc2nc1SCC(=O)NC1CCCC1 | inconclusive: 6.31 µM [inhibitor, single point]
O=C(Nc1ccc(CN2CCOCC2)cc1)c1cccc(-c2cc3ccccc3oc2=O)c1 | inconclusive: 3.55 µM [inhibitor, partial curve, poor fit]
Cc1cc(C)cc(N2C(=O)CCN(Cc3ccccc3)C2=O)c1 | inconclusive: 0.794 µM [inhibitor, single point]
COc1ccc(NC(=S)N2CCCC(c3nc4ccc(C)cc4[nH]3)C2)cc1 (configuration not stated) | inactive
CCN(C(=O)COc1cc(=O)n(C)c2ccccc12)c1cccc(Cl)c1 | inactive
CCOC(=O)c1sc2nc(CC(=O)OC)nc(N3CCN(c4ccccn4)CC3)c2c1C | inconclusive: 23.1 µM [inhibitor, single point]
Cc1ccc2cc(C(c3nnnn3C3CCCC3)N(Cc3cccnc3)Cc3ccco3)c(=O)[nH]c2c1 (configuration not stated) | inconclusive: 10.3 µM [inhibitor, partial curve]
O=C(c1cc(COc2ccc(F)cc2Cl)on1)N1CCc2ccccc2C1 | inactive
COC(=O)c1ccc(C)cc1C1CN=NC12Cc1cc(C)ccc1C2=O (configuration not stated) | inactive
